We go through 76 compounds from the supplement of paper PMC8732350.

Where a name gives a salt, the structure may show the parent alone. ± gives the standard deviation of the averaged measurements. The list shows a part of the results. Repeats in this data set agree poorly, so a single value says little.

This test deals with A549. As to the kind of experiment: surface PD-L1 immunofluorescence intensity relative to IFN-gamma-only control (ratio); higher = more PD-L1 expression. Particulars: 10 µM; exposure time 24 h; IFN-gamma 100 ng/mL.
As for `Nc1ccc(S(=O)(=O)NC(=O)c2ccccc2)cc1` [Sulfabenzamide], the “surface PD-L1 immunofluorescence intensity” value was determined as 0.97. As for `C=C(CC)C(=O)c1ccc(OCC(=O)O)c(Cl)c1Cl` [Ethacrynic acid], the “surface PD-L1 immunofluorescence intensity” value is 0.85. For `CC(C)c1nc(N(C)S(C)(=O)=O)nc(-c2ccc(F)cc2)c1/C=C/[C@@H](O)C[C@@H](O)CC(=O)O` [Rosuvastatin calcium (Crestor)], the “surface PD-L1 immunofluorescence intensity” value worked out at 1.1. For `O=C(COc1cccc2c(=O)[nH]ccc12)c1ccccc1`, the “surface PD-L1 immunofluorescence intensity” value is 0.959.

Take `O=C(O)Cn1c(C(=O)Nc2nc(-c3ccccc3Cl)cs2)cc2ccccc21`: the “surface PD-L1 immunofluorescence intensity” value came out at 0.918.

As for `CS(=O)(=O)c1ccc([C@@H](O)[C@@H](CF)NC(=O)C(Cl)Cl)cc1` [Florfenicol], the “surface PD-L1 immunofluorescence intensity” value worked out at 0.987.

Regarding `CCN(CC)CCCC(C)Nc1ccnc2cc(Cl)ccc12` (stereo unspecified) [Chloroquine], the “surface PD-L1 immunofluorescence intensity” value turned out to be 1.03. For `CCN(CC)CCCC(C)Nc1ccnc2cc(Cl)ccc12` (stereo unspecified) [Chloroquine diphosphate], the “surface PD-L1 immunofluorescence intensity” value was 0.997. On to `CNc1ncnc2c1ncn2[C@@H]1O[C@H](CO)[C@@H](O)[C@H]1O` [N6-methyladenosine], for which the “surface PD-L1 immunofluorescence intensity” value came to 1.4. For the compound `CC(C)OC(=O)C(C(=O)OC(C)C)=C1SC=CS1` [Malotilate], the “surface PD-L1 immunofluorescence intensity” value was 1.03. The same measure for `OCC(O)CN1CCN(c2ccccc2)CC1` (racemic) [Dropropizine (R,S)]: 0.862; for `O=C(c1ccc(F)cc1)C1CCN(CCCCc2ccccc2)CC1` [4-(4-Fluorobenzoyl)-1-(4-phenylbutyl)-piperidine oxalate]: 1.02; for `CC(C)(C)C(=O)OCOC(=O)[C@@H]1N2C(=O)[C@@H](/N=C/N3CCCCCC3)[C@H]2SC1(C)C` [Pivmecillinam hydrochloride]: 1.04. With `C[C@@H](O)[C@H]1C(=O)N2C(C(=O)O)=C(SCCNC=N)C[C@H]12` [Imipenem], the “surface PD-L1 immunofluorescence intensity” value was found to be 0.984. As for `c1ccc2c(c1)CCCC2C1=NCCN1` (stereo unspecified) [Tetrahydrozoline hydrochloride], the “surface PD-L1 immunofluorescence intensity” value came out at 1.06.

In the case of `CN=c1nc(-c2ccccc2)n(-c2ccccc2)s1`, the “surface PD-L1 immunofluorescence intensity” value is 0.946. Consider `O=C1NCCN1c1ncc([N+](=O)[O-])s1` [Niridazole], for which the “surface PD-L1 immunofluorescence intensity” value was determined as 1. Take `C[Se]CC[C@H](N)C(=O)O` [Selenomethionine]: the “surface PD-L1 immunofluorescence intensity” value amounted to 0.974. For `O=C(O)C1=C[C@@H](O)[C@@H](O)[C@H](O)C1` [Shikimic acid (Shikimate)], the “surface PD-L1 immunofluorescence intensity” value came to 1.08. The same measure for `C1N2CN3CN1CN(C2)C3` [Methenamine]: 0.959; for `CCCCCN(C)CCC(O)(P(=O)(O)O)P(=O)(O)O` [Ibandronate sodium]: 1 ± 0.089.

In the case of `C=C1CC[C@H](O)C/C1=C/C=C1\CCC[C@]2(C)[C@@H]([C@H](C)CCCC(C)C)CC[C@@H]12` [Vitamin D3 (Cholecalciferol)], the “surface PD-L1 immunofluorescence intensity” value turned out to be 1.

As to `CC(C)(O)[C@H]1CC[C@@](C)([C@H]2[C@@H](O)C[C@@]3(C)[C@@H]4C[C@H](O[C@@H]5O[C@H](CO)[C@@H](O)[C@H](O)[C@H]5O)[C@H]5C(C)(C)[C@@H](O[C@@H]6OC[C@@H](O)[C@H](O)[C@H]6O)CC[C@@]56C[C@@]46CC[C@]23C)O1` [Astragaloside A], the “surface PD-L1 immunofluorescence intensity” value was 1.08. As to `NNCCc1ccccc1` [Phenelzine sulfate], the “surface PD-L1 immunofluorescence intensity” value was 0.949.

Take `CC(=O)S[C@@H]1CC2=CC(=O)CC[C@]2(C)[C@H]2CC[C@@]3(C)[C@@H](CC[C@@]34CCC(=O)O4)[C@H]12` [Spironolactone]: the “surface PD-L1 immunofluorescence intensity” value turned out to be 0.862 ± 0.048. As for `CCCc1cc(C(N)=S)ccn1` [Prothionamide], the “surface PD-L1 immunofluorescence intensity” value was 0.972. For `CC(=O)Nc1ccc(C(=O)Nc2ccccc2N)cc1`, the “surface PD-L1 immunofluorescence intensity” value was found to be 1.06.

With `CC(Cc1cccc(C(F)(F)F)c1)NCCOC(=O)c1ccccc1` (stereo unspecified) [Benfluorex hydrochloride], the “surface PD-L1 immunofluorescence intensity” value came out at 0.912.

`COC(=O)[C@@H](N)CSC/C=C(\C)CC/C=C(\C)CCC=C(C)C` [S-Farnesyl-L-cysteine methyl ester]: the “surface PD-L1 immunofluorescence intensity” value came to 1.06. For the compound `CN1CCC(=C2c3ccccc3C=Cc3ccccc32)CC1` [Cyproheptadine hydrochloride], the “surface PD-L1 immunofluorescence intensity” value turned out to be 1.01 ± 0.042. Consider `CC(C)(C)NC[C@@H](O)COc1cccc2c1CCCC2=O` [(+) -Levobunolol hydrochloride], for which the “surface PD-L1 immunofluorescence intensity” value is 1.03. Consider `CO[C@H]1/C=C/O[C@@]2(C)Oc3c(C)c(O)c4c(O)c(c(/C=N/N5CCN(C6CCCC6)CC5)c(O)c4c3C2=O)NC(=O)/C(C)=C\C=C\[C@H](C)[C@H](O)[C@@H](C)[C@@H](O)[C@@H](C)[C@H](OC(C)=O)[C@@H]1C` [Rifapentine], for which the “surface PD-L1 immunofluorescence intensity” value was determined as 1.05. With `CO[C@H]1/C=C/O[C@@]2(C)Oc3c(C)c(O)c4c(O)c(c(/C=N/N5CCN(C6CCCC6)CC5)c(O)c4c3C2=O)NC(=O)/C(C)=C\C=C\[C@H](C)[C@H](O)[C@@H](C)[C@@H](O)[C@@H](C)[C@H](OC(C)=O)[C@@H]1C` [Rifapentine (Priftin)], the “surface PD-L1 immunofluorescence intensity” value was determined as 1.09. The same measure for `N=C(N)NC(=N)NCCc1ccccc1` [Phenformin hydrochloride]: 1.06 ± 0.083; for `C[C@H]1O[C@H](O[C@H]2[C@H](O)[C@@H](O)[C@@H](O[C@H]3[C@H](O)[C@@H](O)C(O)O[C@@H]3CO)O[C@@H]2CO)[C@H](O)[C@@H](O)[C@@H]1N[C@H]1C=C(CO)[C@@H](O)[C@H](O)[C@H]1O` (stereo partly specified) [Acarbose]: 0.974 ± 0.04.

In the case of `CC(C)(C=O)Cc1cc(C(C)(C)C)c(O)c(C(C)(C)C)c1`, the “surface PD-L1 immunofluorescence intensity” value is 1.01.

With `Nc1ccc(CC(CC(=O)O)C(=O)O)cc1` [4-Amino-D, L-benzylsuccinic acid], the “surface PD-L1 immunofluorescence intensity” value turned out to be 1.01. The same measure for `Cn1c(CNc2ccc(C(=N)N)cc2)nc2cc(C(=O)N(CCC(=O)O)c3ccccn3)ccc21` [BIBR 953 (Dabigatran etexilate, Pradaxa)]: 1.01; for `CNC1CCCN(c2c(F)cc3c(=O)c(C(=O)O)cn(C4CC4)c3c2OC)C1` (stereo unspecified) [Balofloxacin]: 1.1; for `Cc1cn[nH]c1` [Fomepizole]: 1.15. The same measure for `NCCc1c[nH]cn1` [Histamine dihydrochloride]: 1; for `Cc1ccc(-c2csc3ncnc(SCCC(=O)O)c23)cc1`: 0.911; for `CCCOc1cc(N)ccc1C(=O)OCCN(CC)CC` [Propoxycaine hydrochloride]: 1.01. With `OC(Cn1cncn1)(Cn1cncn1)c1ccc(F)cc1F` [Fluconazole], the “surface PD-L1 immunofluorescence intensity” value was 1.11. In the case of `Nc1[nH]cnc2ncnc1-2` [Adenine], the “surface PD-L1 immunofluorescence intensity” value was determined as 1.17. Then `Nc1[nH]cnc2ncnc1-2` [Adenine sulfate], with 1.12; and `C[C@@H](NCCCc1cccc(C(F)(F)F)c1)c1cccc2ccccc12` [AMG-073 HCl (Cinacalcet HCl)], with 1.02. The same measure for `CC[N+](C)(C)c1cccc(O)c1` [Edrophonium chloride]: 0.827; for `NS(=O)(=O)c1cc(C2(O)NC(=O)c3ccccc32)ccc1Cl` (stereo unspecified) [Chlorthalidone]: 1.08.

`C=CC(N)CCC(=O)O` (stereo unspecified) [Vigabatrin]: the “surface PD-L1 immunofluorescence intensity” value was found to be 1.08. `CCCCCCCCCCCCCCCC(=O)OC/C=C(C)/C=C/C=C(C)/C=C/C1=C(C)CCCC1(C)C` [Retinyl palmitate]: the “surface PD-L1 immunofluorescence intensity” value came to 0.81.

Turning to `Cc1ncc(C[n+]2csc(CCO)c2C)c(N)n1` [Thiamine hydrochloride], the “surface PD-L1 immunofluorescence intensity” value worked out at 0.976. `CC(C)c1c(C(=O)Nc2ccccc2)c(-c2ccccc2)c(-c2ccc(F)cc2)n1CC[C@@H](O)C[C@@H](O)CC(=O)O` [Atorvastatin]: the “surface PD-L1 immunofluorescence intensity” value was found to be 1.01.

With `CC(=O)OCC(=O)[C@@]1(O)CC[C@H]2[C@@H]3CCC4=CC(=O)CC[C@]4(C)[C@H]3[C@@H](O)C[C@@]21C` [Cortisol acetate], the “surface PD-L1 immunofluorescence intensity” value turned out to be 0.908.

For the compound `CCN[C@H]1CN(CCCOC)S(=O)(=O)c2sc(S(N)(=O)=O)cc21` [Brinzolamide], the “surface PD-L1 immunofluorescence intensity” value came out at 0.947. As for `CC[N+](C)(CC)CCOC(=O)C1c2ccccc2Oc2ccccc21` [Methantheline bromide], the “surface PD-L1 immunofluorescence intensity” value stood at 1.16.

With `O=C(O)CN1C(=O)c2cccc3cccc(c23)C1=O` [Alrestatin], the “surface PD-L1 immunofluorescence intensity” value is 1.05. On to `CCCCN(CCCC)CCCOC(=O)c1ccc(N)cc1` [Butacaine], for which the “surface PD-L1 immunofluorescence intensity” value amounted to 0.981. Regarding `Cc1ccc(C(=O)c2ccc(CC(=O)O)n2C)cc1` [Tolmetin sodium salt dihydrate], the “surface PD-L1 immunofluorescence intensity” value was determined as 1.02. With `CC(=O)OCC(=O)[C@@]1(O)CC[C@H]2[C@@H]3CCC4=CC(=O)CC[C@]4(C)[C@@]3(F)[C@@H](O)C[C@@]21C` [Fludrocortisone acetate], the “surface PD-L1 immunofluorescence intensity” value turned out to be 0.802.

Regarding `CC(=Cc1ccc(C(=O)O)cc1)c1ccc2c(c1)C(C)(C)CCC2(C)C`, the “surface PD-L1 immunofluorescence intensity” value came to 1.16 ± 0.2. Then `COc1ccc([C@@H]2CC(=O)c3c(O)cc(O)cc3O2)cc1O` [Hesperetin], with 1.03; and `CN(C)CCCN1c2ccccc2Sc2ccc(C(F)(F)F)cc21` [Triflupromazine hydrochloride], with 0.891; and `NC(=O)c1ccc(N(C(N)=O)c2c(F)cccc2F)nc1-c1ccc(F)cc1F`, with 0.992. Consider `C[N+]1(C)CCC(OC(=O)C(c2ccccc2)c2ccccc2)CC1`, for which the “surface PD-L1 immunofluorescence intensity” value came out at 1.07. The same measure for `O=Cc1c2[nH]c3ccccc3c2cc2[nH]c3ccccc3c12` [6-Formylindolo [3,2-B] carbazole]: 0.99; for `CC(=O)Oc1ccccc1C(=O)Nc1ncc([N+](=O)[O-])s1` [Nitazoxanide (Alinia, Annita)]: 0.989. `CCN(CC)CCOC(=O)C1(C2CCCCC2)CCCCC1` [Dicyclomine hydrochloride]: the “surface PD-L1 immunofluorescence intensity” value was 0.892.

Turning to `CC(N/C(=N\C#N)Nc1ccncc1)C(C)(C)C` (stereo unspecified) [Pinacidil H2O], the “surface PD-L1 immunofluorescence intensity” value worked out at 0.977. `CC(N/C(=N\C#N)Nc1ccncc1)C(C)(C)C` (stereo unspecified) [Pinacidil]: the “surface PD-L1 immunofluorescence intensity” value was 0.895. Turning to `CCCCC(O)c1ccccc1` (stereo unspecified) [Fenipentol], the “surface PD-L1 immunofluorescence intensity” value turned out to be 0.952. For the compound `O=C1c2c(O)cccc2Cc2cccc(O)c21` [Anthralin], the “surface PD-L1 immunofluorescence intensity” value was found to be 1.08. Regarding `COc1nccc(-c2c(-c3ccc(F)cc3)ncn2C2CCC(O)CC2)n1` (stereo unspecified), the “surface PD-L1 immunofluorescence intensity” value is 0.968. Take `COc1c(C)c(C(=O)c2ccc(N)c(C(=O)O)c2)n2ccccc12`: the “surface PD-L1 immunofluorescence intensity” value was 1.1.

For the compound `COc1ccc2c(c1)CCC1C2CCC2(C)C(NCCCCCCN3C(=O)C=CC3=O)CCC12` (stereo unspecified), the “surface PD-L1 immunofluorescence intensity” value was 1.08. As to `CC(C)C[C@H](NP(=O)(O)O[C@@H]1O[C@@H](C)[C@H](O)[C@@H](O)[C@H]1O)C(=O)N[C@@H](Cc1c[nH]c2ccccc12)C(=O)O` [Phosphoramidon], the “surface PD-L1 immunofluorescence intensity” value was determined as 0.883.
